Patent publication US9718861B2 (Universitaet Leipzig, priority 2011, dated 2017)
Part of at least one peptide drawing is inferred or uncertain, most often the ends.

The chains behind the UniProt entries cited, without tags or fusion partners.
UniProt Q92847, whole entry: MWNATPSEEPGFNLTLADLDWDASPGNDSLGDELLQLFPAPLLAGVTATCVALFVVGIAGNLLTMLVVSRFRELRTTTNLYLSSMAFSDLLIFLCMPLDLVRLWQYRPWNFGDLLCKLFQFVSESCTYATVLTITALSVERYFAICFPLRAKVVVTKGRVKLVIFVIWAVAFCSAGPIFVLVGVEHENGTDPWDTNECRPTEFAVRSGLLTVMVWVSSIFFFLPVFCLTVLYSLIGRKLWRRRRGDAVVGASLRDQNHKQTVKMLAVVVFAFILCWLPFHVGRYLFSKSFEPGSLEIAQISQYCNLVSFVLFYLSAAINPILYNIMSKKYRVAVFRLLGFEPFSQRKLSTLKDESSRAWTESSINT

Biological target: ghrelin receptor (Homo sapiens, UniProt Q92847)
Test: Inositol trisphosphate turnover assay in COS-7 cells transfected with the ghrelin receptor
Format: cell-based
Set-up: expressed in transfected cells
Conditions: shift in potency compared to ghrelin; agonistic activity

Compound	x-fold (EC50) [x-fold]
CC(C)C[C@H](NC(=O)[C@H](CC(C)C)NC(=O)[C@@H](Cc1ccc(-c2ccccc2)cc1)NC(=O)[C@H](Cc1ccccc1)NC(=O)[C@@H](Cc1c[nH]c2ccccc12)NC(=O)[C@@H](N)CCCCN)C(N)=O [Peptide 14, KwF-(D-Bip)-LL-NH2]	>700
CC(C)C[C@H](NC(=O)[C@H](CC(C)C)NC(=O)[C@@H](Cc1ccc(C(=O)c2ccccc2)cc1)NC(=O)[C@H](Cc1ccccc1)NC(=O)[C@@H](Cc1c[nH]c2ccccc12)NC(=O)[C@@H](N)CCCCN)C(N)=O [Peptide 15, KwF-(D-Bpa)-LL-NH2]	>700
CC(C)C[C@H](NC(=O)[C@H](CC(C)C)NC(=O)[C@H](NC(=O)[C@H](Cc1ccccc1)NC(=O)[C@@H](Cc1c[nH]c2ccccc12)NC(=O)[C@@H](N)CCCCN)C(c1ccccc1)c1ccccc1)C(N)=O [Peptide 16, KwF-(D-Dip)-LL-NH2]	>700
